PubChem BioAssay AID1347076 (National Center for Advancing Translational Sciences (NCATS), 2019)
Among all 400,000 compounds or so, about 13,000 (3.2%) were called active. Inconclusive results, whose numbers are uncertain, are shown with a selection of clear calls. The call rests on the fitted dose curve; in most records, active means well fitted cell-killing curve with a large enough effect; inconclusive means small, poorly fitted or top-dose-only effect, or effect the other way; inactive means flat fitted curve, though single readings scatter. A potency beside an inconclusive call is a rough fit, not a confirmed value.
Potency means the concentration at half of the fitted maximal effect.

Assay: qHTS assay for MDR1-selective chemotherapeutics: Primary screen using the drug-selected MDR subline cells KB-V1; further: nearly all actives have a fitted effect of over 60% in size
Conditions: KB-V1 MDR cells viability, CellTiter-Glo, 72 h; series mostly up to 46.1 µM
Outline: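 Cells of the MDR subline KB-V1 are plated, dosed with compound at multiple concentrations, and incubated 72 h at 37 degrees C; CellTiter-Glo is then added and luminescence read after 10 min.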
In the case of `CCOc1ccc(NC(=O)Cn2cc(C(=O)c3ccc(C)c(C)c3)c(=O)c3cc(OC)c(OC)cc32)cc1`, the Potency is reported as inconclusive: 25.9 µM [rising, single point].
With `O=C(OCC(=O)c1c[nH]c2ccccc12)c1ccco1` the Potency was “inactive”.
For `Cc1ccc(/C=N/Nc2nc3ccccc3[nH]2)s1`, the Potency was active: 14.6 µM.
In the case of `COC(=O)c1cc2oc3ccccc3c2n1CC(=O)N1CCCc2ccccc21`, the Potency is reported as inconclusive: 8.2 µM [cytotoxic, partial curve].
With `Cc1ccc(CN2CCN(C3CCN(S(=O)(=O)c4ccc(C)cc4)CC3)C(=O)C2=O)cc1` the Potency was “inactive”.
In the case of `CCOc1ccc(NC(=O)C(=O)NCCc2csc3nc(-c4ccccc4F)nn23)cc1`, the Potency is reported as inconclusive: 14.6 µM [rising, single point].
In the case of `CN(C)S(=O)(=O)Oc1ccccc1C(=O)Nc1cccc(C(F)(F)F)c1`, the Potency is reported as inconclusive: 20.6 µM [cytotoxic, single point].
For `CCOc1ccc(/C=N/OCC(=O)NC(c2ccccc2)c2ccccc2)cc1`, the Potency was inconclusive: 3.66 µM [cytotoxic, full curve, poor fit].
For `Cc1ccc(-n2ccnc(NCCc3ccc(S(N)(=O)=O)cc3)c2=O)cc1C`, the Potency was “inactive”.
With `N#CC1=C(N)NC(SCC(=O)c2ccccc2)=C(C#N)C12CCCC2` the Potency was inconclusive: 16.4 µM [cytotoxic, single point].
In the case of `COc1cc(NC(=O)c2ccnc(N)c2)cc(C(=O)Nc2cccc(C(F)(F)F)c2)c1`, the Potency is reported as inconclusive: 20.6 µM [rising, partial curve, poor fit].
In the case of `Nc1ccn(CC(=O)NCc2ccccn2)c(=O)n1`, the Potency is reported as inconclusive: 18.4 µM [rising, single point].
For `CC(=O)C1(C)C(=O)N(c2ccc(C)cc2)C(=O)N1c1ccc(C)cc1` (stereo not given), the Potency was inconclusive: 8.2 µM [cytotoxic, partial curve].
In the case of `COc1ccc(CCn2c3c(c(=O)[nH]c2=O)C(NC(=O)c2ccccc2OC)(C(F)(F)F)C(=O)N3)cc1OC` (stereo not given), the Potency is reported as inconclusive: 16.4 µM [rising, single point].
In the case of `COC(=O)[C@]1(Cc2ccccc2)N[C@H](CN(C)C(=O)NC(C)C)[C@@H]2C(=O)N(C)C(=O)[C@@H]21`, the Potency is reported as inconclusive: 13 µM [rising, partial curve, poor fit].
In the case of `Cc1cccc(C)c1NC(=O)CN(C)C(=O)c1ccccc1Cc1ccccc1`, the Potency is reported as inconclusive: 8.2 µM [cytotoxic, partial curve].
For `Cc1cc(Cl)c(S(=O)(=O)Nc2ccc3c(c2)OCCO3)cc1OCC(=O)NC1CCCCC1`, the Potency was inconclusive: 20.6 µM [cytotoxic, single point].
In the case of `COc1ccccc1CNC(=O)CSc1nnc2ccc(-c3cccnc3)nn12`, the Potency is reported as inconclusive: 1.03 µM [rising, full curve].
For `COc1ccc(NC(=O)c2ccc(-c3ccccc3C(F)(F)F)o2)cc1`, the Potency was “inactive”.
With `O=C(Cc1csc(-c2ccccc2)n1)NCc1ccco1` the Potency was inconclusive: 20.6 µM [rising, single point].
With `CC(C)C[C@H](NC(=O)Nc1cccc(Cl)c1)C(=O)O` the Potency was inconclusive: 11.6 µM [rising, partial curve].
With `CN(C)C(=O)c1ccc(NC(=O)c2ccccc2SCC(=O)N2CCCC2)cc1` the Potency was “inactive”.
With `COc1cc(Cl)c(NS(=O)(=O)c2ccc(-c3ccc(=O)[nH]n3)o2)c(OC)c1` the Potency was inconclusive: 29.1 µM [rising, single point].
For `CCOCc1cnc(C)nc1NCC(=O)c1c(C)n(C)c2ccc(OC)cc12`, the Potency was inconclusive: 23.1 µM [rising, partial curve, poor fit].
With `Cc1ccc(N2CC(C(=O)NNC(=O)c3ccc(F)cc3)CC2=O)cc1` (stereo not given) the Potency was inconclusive: 32.6 µM [cytotoxic, partial curve, poor fit].
For `O=C(O)C(CCCCNS(=O)(=O)c1ccc(F)cc1)NS(=O)(=O)c1ccc(F)cc1` (stereo not given), the Potency was inconclusive: 1.46 µM [rising, partial curve].
With `Cc1cccc(NC(=O)C2CCCN2C(=O)OCc2ccccc2)c1` (stereo not given) the Potency was inconclusive: 11.6 µM [cytotoxic, single point].
In the case of `CCCN(CCC)c1ccc(/C=C/c2ccnc3ccccc23)cc1`, the Potency is reported as inconclusive: 18.4 µM [cytotoxic, single point].
With `COc1ccc(CNCC(O)COc2cccc3c2OC(C)(C)C3)cc1` (stereo not given) the Potency was inconclusive: 1.84 µM [cytotoxic, full curve].
For `Cc1ccc(N2CCN(/N=C/C3=C(N4CCOCC4)C(=C\c4ccccc4)/CC3)CC2)cc1`, the Potency was “inactive”.
For `C=C(C)Cc1c(C)c(C#N)c2[nH]c3ccccc3n2c1=O`, the Potency was inconclusive: 20.6 µM [cytotoxic, partial curve, poor fit].
For `CC[C@]12c3[nH]c4cc(CCC(=O)N(C)C)ccc4c3CCN1C(=O)[C@@H](CC(=O)NCc1ccc(OC)c(OC)c1)C[C@@H]2C(=O)N1CCN(C(=O)C2CC2)CC1`, the Potency was inconclusive: 29.1 µM [rising, single point].
In the case of `O=C(Nc1ccc(CN2CCS(=O)(=O)CC2)cc1)c1ccc(Cl)cc1`, the Potency is reported as inconclusive: 18.4 µM [cytotoxic, partial curve].
With `Cc1nc(Nc2ccccc2F)c2nnn(Cc3ccccc3Cl)c2n1` the Potency was inconclusive: 20.6 µM [rising, partial curve, poor fit].
For `CCNC(=O)c1cc2c(c(-c3cccc(-c4ccccc4F)c3)n1)[C@@H](CCO)N(C(=O)CC1CC1)C2`, the Potency was inconclusive: 20.6 µM [cytotoxic, single point].
For `O=c1c2ccccc2nc2c3ccccc3c(NCCO)nn12`, the Potency was “inactive”.
In the case of `CC(=O)c1cccc(NC(=O)c2cc(-c3ccncc3)nc3ccccc23)c1`, the Potency is reported as inconclusive: 29.1 µM [cytotoxic, single point].
For `Cn1ccc2c(OCC(=O)NCc3ccccc3Cl)cccc2c1=O`, the Potency was “inactive”.
For `CC(=O)N1CCC2(CC1)OC(=O)C(C)=C2C(=O)NCc1ccc(Cl)cc1`, the Potency was “inactive”.
With `COc1ccc([C@@H]2CC=C(C(=O)O)[C@H](c3ccc(F)cc3)N2S(=O)(=O)c2ccccc2C)cc1` the Potency was inconclusive: 9.2 µM [rising, partial curve].
